{
  "source": "patent US20080235826A1",
  "biological_target": "hepatitis C virus (HCV) protein NS5A(N), yeast two-hybrid fusion (hepatitis C virus)",
  "experiment": "yeast two-hybrid, plate growth on Leu-drop out and X-gal media",
  "note": "No constants are given. Whether binding was seen depends on the method and setting. Tags and fused reporters may be left off the sequences shown.",
  "data": [
    {"binder": "PAPP5 (phytochrome-associated protein phosphatase 5), full-length, yeast two-hybrid fusion (enzyme, not shown: large carriers) METKNENSDVSRAEEFKSQANEAFKGHKYSSAIDLYTKAIELNSNNAVYWANRAFAHTKLEEYGSAIQDASKAIEVDSRYSKGYYRRGAAYLAMGKFKDALKDFQQVKRLSPNDPDATRKLKECEKAVMKLKFEEAISVPVSERRSVAESIDFHTIEVEPQYSGARIEGEEVTLDFVKTMMEDFKNQKTLHKRYAYQIVLQTRQILLALPSLVDISVPHGKHITVCGDVHGQFYDLLNIFELNGLPSEENPYLFNGDFVDRGSFSVEIILTLFAFKCMCPSSIYLARGNHESKSMNKIYGFEGEVRSKLSEKFVDLFAEVFCYLPLAHVINGKVFVVHGGLFSVDGVKLSDIRAIDRFCEPPEEGLMCELLWSDPQPLPGRGPSKRGVGLSFGGDVTKRFLQDNNLDLLVRSHEVKDEGYEVEHDGKLITVFSAPNYCDQMGNKGAFIRFEAPDMKPNIVTFSAVPHPDVKPMAYANNFLRMFN", "values": [
      {"measurement": "binding", "result": "no binding"}
    ]}
  ]
}
